Measurements taken from patent publication US20170137491A1.
No constants are given. Whether binding was seen depends on the method and setting. Some binding calls cover weakened binding; strength is not graded here.

Legend:
[1] = target: SBP-ΔLNGFR expressed from pHRSIN-HA-SBP-ΔLNGFR (pilot construct with N-terminal HA tag) on 293T cells; experiment: flow cytometry on transfected 293T cells
[2] = target: codon-optimised SBP-ΔLNGFR fusion protein, as expressed at the cell surface after signal peptide cleavage; experiment: flow cytometry on transfected or transduced 293T cells
[3] = target: SBP-ΔLNGFR expressed from pHRSIN-HA-SBP-ΔLNGFR (pilot construct with N-terminal HA tag) on 293T cells; experiment: magnetic bead selection of transfected 293T cells, release with 2 mM biotin
[4] = target: codon-optimised SBP-ΔLNGFR fusion protein, as expressed at the cell surface after signal peptide cleavage; experiment: magnetic bead selection of transduced primary human CD4+ T cells
[5] = target: codon-optimised SBP-ΔLNGFR fusion protein, as expressed at the cell surface after signal peptide cleavage; experiment: magnetic bead selection of 293T cells transfected with pSpCas9(BB)-P2A-SBP-ΔLNGFR

Substance	binding [1]	binding [2]	binding [3]	binding [4]	binding [5]
streptavidin-APC (eBioscience) (from UniProt P22629 37-163)	binds	binds			
streptavidin-conjugated magnetic beads (from UniProt P22629 37-163)			binds	binds	binds
